Experimental data published in patent publication US8980848B2, “Flavonoid dimers and their use” (The Hong Kong Polytechnic University, priority 2010, dated 2015).

By UniProt entry, the sequences of proteins in these tests, tags left out.
UniProt P08183, whole entry: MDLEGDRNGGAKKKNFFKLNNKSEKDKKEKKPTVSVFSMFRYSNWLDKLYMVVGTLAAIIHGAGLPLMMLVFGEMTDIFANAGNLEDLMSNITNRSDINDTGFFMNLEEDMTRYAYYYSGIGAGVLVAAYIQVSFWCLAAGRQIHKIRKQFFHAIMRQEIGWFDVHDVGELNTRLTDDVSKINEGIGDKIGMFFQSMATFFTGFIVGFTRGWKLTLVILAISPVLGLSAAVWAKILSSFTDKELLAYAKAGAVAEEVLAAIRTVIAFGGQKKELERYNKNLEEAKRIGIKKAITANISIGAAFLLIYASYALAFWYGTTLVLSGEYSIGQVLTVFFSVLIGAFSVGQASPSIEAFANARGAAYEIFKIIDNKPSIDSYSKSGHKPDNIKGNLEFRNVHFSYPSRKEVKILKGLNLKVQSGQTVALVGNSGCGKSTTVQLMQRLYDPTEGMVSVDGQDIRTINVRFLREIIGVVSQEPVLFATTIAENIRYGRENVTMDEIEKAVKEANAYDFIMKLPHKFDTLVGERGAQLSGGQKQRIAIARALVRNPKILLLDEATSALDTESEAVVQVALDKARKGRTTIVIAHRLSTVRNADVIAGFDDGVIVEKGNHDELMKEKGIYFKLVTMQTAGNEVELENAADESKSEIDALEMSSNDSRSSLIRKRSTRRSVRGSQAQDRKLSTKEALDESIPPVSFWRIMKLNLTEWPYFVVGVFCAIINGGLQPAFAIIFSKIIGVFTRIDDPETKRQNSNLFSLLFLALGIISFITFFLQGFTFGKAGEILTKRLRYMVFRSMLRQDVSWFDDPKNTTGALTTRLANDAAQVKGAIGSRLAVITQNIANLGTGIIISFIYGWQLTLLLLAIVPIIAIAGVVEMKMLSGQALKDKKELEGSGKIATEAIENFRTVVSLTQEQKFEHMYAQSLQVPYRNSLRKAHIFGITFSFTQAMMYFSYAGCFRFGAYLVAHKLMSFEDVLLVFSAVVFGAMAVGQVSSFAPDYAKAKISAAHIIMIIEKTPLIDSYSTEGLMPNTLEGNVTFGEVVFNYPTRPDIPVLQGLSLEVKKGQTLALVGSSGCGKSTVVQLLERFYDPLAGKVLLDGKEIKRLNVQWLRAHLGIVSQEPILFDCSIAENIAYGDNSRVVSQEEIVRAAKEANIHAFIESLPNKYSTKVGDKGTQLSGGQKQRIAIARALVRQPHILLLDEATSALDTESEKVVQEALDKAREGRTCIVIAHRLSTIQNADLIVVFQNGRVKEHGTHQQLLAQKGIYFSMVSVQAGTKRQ

Biological target: Pgp (LCC6MDR cells) (Homo sapiens, UniProt P08183)
Assay: Cell proliferation assay: Pgp-modulating activity, reversal of anticancer drug resistance in LCC6MDR cells
Conditions: RF = (IC50 without modulator)/(IC50 with 1.0 μM modulator), paclitaxel

CCN(CCOCCOc1ccc(-c2cc(=O)c3ccccc3o2)cc1)CCOCCOc1ccc(-c2cc(=O)c3ccccc3o2)cc1 [Compound 13, 1,13-Bis[4′-(4H-chromen-4-on-2-yl)phenyl]-N-(ethyl)-1,4,10,13-tetraoxa-7-azamidecane]
RF (Relative Fold), cpd at 1 μM: 95.7 and (95.7)

The source holds more than one record for some entries. The list is limited to them. The source may hold further records. Results that share an entry do not match, cause unknown; dose, time, organism, isomer or construct need not be as stated for each record.
